PubChem BioAssay AID1259298 – Sanger Institute, 2017
Aim: 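Kinases whose loss strengthens killing by BYL719, cetuximab or trametinib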 (primary screen). Cells: HT55 human colorectal cancer cell line. Reagents: siRNA pool against human genes. Conditions: anchor drug BYL719 1 µM, cetuximab 5 µg/ml or trametinib 10 nM, or DMSO vehicle alone. Measured: 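Mean viability over replicates versus non-targeting pool, a robust z-score without drug, and per-drug synergy scores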. Reading the numbers: robust z-score, knock-down alone: higher = more cells remaining; low means essential gene. Call rule: 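Essential when the robust z-score for knock-down alone with DMSO is below -3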. Calls: active = essential (knock-down alone); inactive = no change alone.
The whole screen tested 794 reagents; shown is a random part of them. Of all reagents, 20 (2.5%) are marked active. 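Calls rest only on the knock-down-alone score; drug synergy scores played no part in them.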 Entries without a mark were called inactive. Not all columns of the deposit are shown. Not stated in the record: the amount of reagent, the time to read-out.

CSNK2A1 scored robust z-score, knock-down alone 0.58.
Knock-down of PLK4 came out at: robust z-score, knock-down alone -2.22.
After knock-down of PHKG2, the record shows robust z-score, knock-down alone -0.335.
PRKX gave robust z-score, knock-down alone 0.58.
CSNK1A1L gave robust z-score, knock-down alone 0.58.
Against CLK2, the values are robust z-score, knock-down alone 0.58.
With knock-down of PDK1 the results were robust z-score, knock-down alone 0.58.
With knock-down of CAMKV, the record shows robust z-score, knock-down alone 0.58.
KHK scored robust z-score, knock-down alone 0.58.
Depletion of STK32C resulted in: robust z-score, knock-down alone 0.58.
STK17A gave robust z-score, knock-down alone 0.252.
After knock-down of PIP4K2B, the record shows robust z-score, knock-down alone -0.0499.
Silencing of NTRK2 gave: robust z-score, knock-down alone 0.304.
PIK3R5 showed robust z-score, knock-down alone 0.58.
IKBKB gave robust z-score, knock-down alone 0.58.
TAF1 showed robust z-score, knock-down alone -0.278.
Silencing of ITPKC resulted in: robust z-score, knock-down alone 0.0816.
For DBF4, the values are robust z-score, knock-down alone 0.58.
Knock-down of ARAF resulted in: robust z-score, knock-down alone 0.58.
Against RIOK3 the deposit lists robust z-score, knock-down alone 0.354.
After knock-down of MYLK3 the results were robust z-score, knock-down alone -1.43.
For PSKH1, the values are robust z-score, knock-down alone 0.58.
Depletion of ASPM resulted in: robust z-score, knock-down alone -0.548.
Knock-down of MKNK2 gave: robust z-score, knock-down alone -0.607.
Silencing of PIKFYVE gave: robust z-score, knock-down alone 0.58.
Knock-down of MAP3K1 resulted in: robust z-score, knock-down alone 0.58.
Knock-down of GNAS came out at: robust z-score, knock-down alone -0.839.
Depletion of BRWD1 came out at: robust z-score, knock-down alone 0.0958.

Ordered by “robust z-score, knock-down alone” (descending): some entries from above.
PDK1: robust z-score, knock-down alone = 0.58
CAMKV: robust z-score, knock-down alone = 0.58
